{"source": "patent US10602680B2", "about": "“Method of internal seed disinfection by combining seed priming with vacuum infiltration” (priority 2014, dated 2020)", "tested_on": "seed borne disease", "assay": "Vacuum infiltration of infected seeds with oxytetracycline, extended time and concentration", "type": "in vivo", "note": "At least one structure is not confirmed: it was looked up by name or label, or the drawing left a doubt.", "data": [{"smiles": "CN(C)[C@@H]1C(O)=C(C(N)=O)C(=O)[C@@]2(O)C(O)=C3C(=O)c4c(O)cccc4[C@@](C)(O)[C@H]3[C@H](O)[C@@H]12", "note": "[Oxytetracycline]", "values": [{"measurement": "eradication of seed borne disease", "setting": "500 ppm, vacuum infiltration for double, triple and 10 times the 10 minute period (up to 100 minutes)", "result": "not even the 100 minute treatment successfully eradicated the seed borne disease"}, {"measurement": "eradication of seed borne disease", "setting": "high concentrations (500 ppm doubled, tripled, 5000 ppm), more than 24 hours under vacuum infiltration, the 20, 30 and 100 minute treatments were not effective", "result": "effective"}]}]}
